Results on 1 compound are retold here after the supplement of paper PMC6411743.

± gives the standard deviation of the averaged measurements. Only a part is listed here, and it is no random draw. Most values lie at the level of the controls, where differences are scatter.

The target of this experiment is T1, UniProt Q8N0U8 and related entries.
T1 sequence (whole entry): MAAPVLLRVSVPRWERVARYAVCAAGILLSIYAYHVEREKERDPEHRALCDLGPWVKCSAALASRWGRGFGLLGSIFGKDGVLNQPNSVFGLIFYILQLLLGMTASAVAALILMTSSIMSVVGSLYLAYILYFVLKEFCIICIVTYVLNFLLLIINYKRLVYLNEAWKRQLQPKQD
The experiment is described as follows: NP40-soluble protein abundance relative to vehicle (solubility fold change) (ratio); higher = more soluble protein in presence of ATP. The procedure, abridged:
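In three independent experiments, Jurkat crude lysate made by Dounce homogenisation was treated for 10 min at room temperature and then 3 min at 37 °C with eight concentrations ranging from 0.1 to 10 mM. It was then solubilised with 0.8% NP40 plus benzonase for 60 min at 4 °C and ultracentrifuged. The supernatant was TMT-labelled for LC-MS/MS, and each value is the fold change against the detergent-processed vehicle for the same replicate, using vsn-normalised intensities.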

Regarding `Nc1ncnc2c1ncn2[C@@H]1O[C@H](COP(=O)(O)OP(=O)(O)OP(=O)(O)O)[C@@H](O)[C@H]1O` [adenosine triphosphate], the NP40-soluble protein abundance (concentration: 0.1mM) was determined as 0.981 ± 0.12 and the NP40-soluble protein abundance (concentration: 0.5mM) came to 0.929 ± 0.085.
